# Source: the supplement of paper PMC8975748
# ± gives the standard deviation of the averaged measurements. Some of the results follow. These are raw signals, not scaled to a control.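 One yeast strain harboring four plasmids, each bearing a fluorescent protein plus an amino-acid or uracil synthesis gene, founds the community. Random loss of plasmids produces mixed prototroph and auxotroph subpopulations. Cells were fixed, then counted with automated confocal fluorescence imaging, with DMSO-treated wells as vehicle reference.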 Numbered stars: 1 amine (or outer) side, 2 acyl side, 3 side chain; on linkers, the order of the positions; unused ones are H or OH. Bridge positions count the residues as written; N and C are the ends. Square brackets hold non-standard residues; d marks the D form. Peptide text beside a SMILES is read from it. * marks the point of attachment. ξ: configuration not given here. X1 = N=C1NCCC([C@H](N[*:1])C(=O)[*:2])N1; ΔAla(Z-3-ureido) = NC(=O)N/C=C(\N)C(=O)O; ξβ3hOrn = NCCCC(N)CC(=O)*; Dap = NC[C@H](N)C(=O)O
# Tested on: Saccharomyces cerevisiae BY4741 SeMeCo community
# Test: imaged cell count per well (cells); higher = more cells
# Conditions: 10 µM; 24 h; SM minimal medium
# Description: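 Same SeMeCo high-content imaging drug screen: Selleck FDA-approved drugs at 10 µM, 24 h in SM medium, 384-well plates, 3 replicates.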
row,Compound,imaged cell count per well
1,O=C(O)c1cc(O)c2c(c1)[C@H]([C@H]1c3cc(C(=O)O)cc(O)c3C(=O)c3c(O[C@@H]4O[C@H](CO)[C@@H](O)[C@H](O)[C@H]4O)cccc31)c1cccc(O[C@@H]3O[C@H](CO)[C@@H](O)[C@H](O)[C@H]3O)c1C2=O [Sennoside A],26500 ± 3800
2,CC(=O)OC(C)C[N+](C)(C)C (stereo not drawn) [Methacholine chloride],19900 ± 4800
3,C[C@]12CC[C@@H]3c4ccc(O)cc4CC[C@H]3[C@@H]1CCC2=O [Estrone],26000 ± 3500
4,C[C@]12CC[C@@H]3c4ccc(O)cc4CC[C@H]3[C@@H]1C[C@@H](O)[C@@H]2O [Estriol],22800 ± 4600
5,Cc1ccc(-c2cc(C(F)(F)F)nn2-c2ccc(S(N)(=O)=O)cc2)cc1 [Celecoxib],23200 ± 1600
6,CC(C(=O)O)c1cccc(C(=O)c2ccccc2)c1 (stereo not drawn) [Ketoprofen],24800 ± 5200
7,C[C@@H]1NC(=O)[C@@H](N)CNC(=O)[C@H](C2CCNC(=N)N2)NC(=O)/C(=C/NC(N)=O)NC(=O)[C@H](CNC(=O)CC(N)CCCN)NC1=O.N=C1NCC[C@H]([C@@H]2NC(=O)/C(=C/NC(N)=O)NC(=O)[C@H](CNC(=O)C[C@@H](N)CCCN)NC(=O)[C@H](CO)NC(=O)[C@@H](N)CNC2=O)N1 [Capreomycin Sulfate] (H-[Dap]S[Dap](ξβ3hOrn)[ΔAla(Z-3-ureido)][X1]; lactam 1-C),21300 ± 8300
8,NC(=NCCCCCCN=C(N)N=C(N)Nc1ccc(Cl)cc1)N=C(N)Nc1ccc(Cl)cc1 [Chlorhexidine?2HCl],32000 ± 2400
